Measurements from the supplement of paper PMC3334620.
Whole data set: some 33,000 sequences, median “E-score (-0.5 to 0.5)” near -0.0034, cut for the highest 2% near 0.25. Some of the results follow.

target: T1, Yap3 (UniProt P38749); test: PBM E-score (8-mer binding enrichment) (E-score (-0.5 to 0.5)); higher = stronger / more preferred TF binding; conditions: protein concentration: 100 nM; construct: GST-full length
T1 sequence: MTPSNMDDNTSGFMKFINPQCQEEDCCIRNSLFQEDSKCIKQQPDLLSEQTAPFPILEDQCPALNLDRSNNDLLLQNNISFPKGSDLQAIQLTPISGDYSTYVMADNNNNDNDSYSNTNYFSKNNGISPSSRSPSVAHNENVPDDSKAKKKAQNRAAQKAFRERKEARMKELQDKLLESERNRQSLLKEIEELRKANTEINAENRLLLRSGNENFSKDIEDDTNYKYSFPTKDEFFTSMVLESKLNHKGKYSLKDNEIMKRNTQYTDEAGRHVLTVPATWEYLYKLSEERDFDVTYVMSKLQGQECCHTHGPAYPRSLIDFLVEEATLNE
Method in brief: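 Yeast transcription factors carrying a GST tag, as full-length proteins or DNA-binding domains, were produced by PURExpress in vitro transcription/translation. About 100-200 nM protein was applied to universal all-10-mer Agilent arrays, double-stranded by primer extension on fresh or once-stripped slides. Bound protein was detected with fluorescent anti-GST, and scans were normalised with masliner. The Universal PBM Analysis Suite gave each ungapped eight-base word, pooled with its reverse complement, an E-score, a modified Wilcoxon-Mann-Whitney statistic.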

| Sequence | PBM E-score |
| --- | --- |
| CACCCCAC | 0.151 |
| CGAGTACG | -0.147 |
| CAACTACG | 0.0989 |
| GAGGCGCC | -0.166 |
| CGTTGTTA | 0.222 |
| TAGGAAGA | -0.143 |
| AGTGTTGG | 0.0523 |
| CAAACCCC | -0.151 |
| CGTGACGC | 0.134 |
| AATCAGCT | 0.0944 |
| AACAGCGT | 0.093 |
| GTCTCCTA | -0.0882 |
| TGCTAGAA | -0.0446 |
| CTGAGGCC | -0.124 |
| ACAAAGAA | 0.257 |
| GAATAAGC | -0.0239 |
| GATAATGC | 0.0805 |
| GATCGGAA | -0.0607 |
| ATTAACTG | 0.241 |
| AGCCTTGA | -0.0624 |
| AGGCACAG | -0.251 |
| ATCGGTAA | 0.0893 |
| AGTTGCTA | 0.193 |
| CAGACACA | -0.047 |
| CTAGGGTC | -0.279 |

| Sequence | PBM E-score |
| --- | --- |
| CACGGGCG | -0.0851 |
| TCACTCGA | -0.0644 |
| CGAATAAA | 0.14 |
| CGAGGCAA | 0.17 |
| ATCGCTAA | 0.113 |
| GCACACGA | -0.00656 |
| CGAGGGCA | 0.0481 |
| ATACAAAG | 0.109 |
| ACTTACCG | 0.111 |
| GGAGGCAC | -0.121 |
| CACCTGTA | -0.153 |
| ACTAGACC | 0.154 |
| AACTCGCC | 0.0692 |
| ATCGGTGC | 0.0156 |
| AATCATTC | 0.216 |
| ACACAACG | 0.111 |
| AAGGCAGT | -0.0469 |
| AAGGCATA | 0.114 |
| GTGGGTCA | -0.0942 |
| AAGCCGTA | 0.0253 |
| CTGCTAAG | -0.291 |
| GAATAGAA | 0.125 |
| AGACCGAA | -0.0231 |
| ACGTACGG | 0.0636 |
| ACGCATGG | -0.0836 |

| Sequence | PBM E-score |
| --- | --- |
| GATATCGC | 0.104 |
| ACTGGGTG | -0.0414 |
| AAAACCCA | 0.195 |
| GCTCGCAA | 0.0657 |
| ACTCTTTC | -0.0504 |
| ATCTAGAA | 0.0495 |
| CCTTCTGA | -0.028 |
| CCTCAGGA | -0.184 |
| CAGGCCTG | -0.0728 |
| CGCAGGGA | -0.258 |
| ACTCGATG | 0.0263 |
| GGATACGA | 0.0439 |
| ATAAGCCC | -0.159 |
| ATGATAAA | 0.228 |
| CATCTAGG | -0.186 |
| CTTCGTAA | 0.141 |
| CCTAATAA | 0.146 |
| CCCCAAAA | -0.0376 |
| ATATACGG | 0.0974 |
| CAACACAC | 0.0886 |
| AAGTCGTC | -0.101 |
| CTGCATTC | 0.0726 |
| GCTACCCA | -0.125 |
| AACTGGGA | -0.16 |
| AGAGGGTC | -0.324 |

| Sequence | PBM E-score |
| --- | --- |
| AAAAAGGG | 0.125 |
| AGGGAAAA | 0.0983 |
| GACAGAGC | -0.245 |
| AGTGTAGA | -0.069 |
| ATATCAAA | 0.244 |
| TAGATCTA | 0.142 |
| AGCCGTTC | -0.178 |
| GGTCGGAC | -0.254 |
| CGCAAGCG | -0.103 |
| TACCCCTA | 0.0791 |
| ACTGGATG | -0.113 |
| AGCCAGGG | -0.289 |
| CCATGTGC | -0.0217 |
| AATGCAGT | 0.0696 |
| CCACACCG | -0.1 |
| CAGCAGCG | -0.108 |
| CCTGCGAC | -0.132 |
| AGCCTCTC | -0.228 |
| GACGCTCA | -0.105 |
| GCAGAAGC | -0.163 |
| AGGTCGGG | -0.218 |
| AGCTAGCA | -0.11 |
| ACAGTTAT | 0.181 |
| ATGAGGGA | -0.0878 |
| AGATGTTG | -0.168 |

Pulled one by one from the list above, 5 records:

| Sequence | PBM E-score |
| --- | --- |
| ACAGTTAT | 0.181 |
| AGCTAGCA | -0.11 |
| AGCCGTTC | -0.178 |
| AAAAAGGG | 0.125 |
| CCTGCGAC | -0.132 |

Next part

| Sequence | PBM E-score |
| --- | --- |
| AGTTTAAA | 0.16 |
| GACCCCAA | -0.146 |
| GGCCCAAA | -0.0982 |
| CAGCGCAA | -0.0782 |
| AAGACATG | 0.0188 |
| GAATGTGC | -0.0245 |
| ATCATGAA | 0.154 |
| ACTGGACC | -0.196 |
| CAGTCCAG | -0.244 |
| AGATAAAC | 0.111 |
| CGTAAGCA | 0.131 |
| CTTGGGGC | -0.195 |
| CGGGCCAG | -0.2 |
| CCTCGCCG | -0.261 |
| CGCGGGCA | 0.0869 |
| CAGCCTAC | -0.0548 |
| CTCTACGC | -0.0435 |
| AATTAACT | 0.176 |
| AAGCGTAT | 0.00643 |
| AAGCGCTA | 0.0946 |
| ACGGGCGC | -0.0129 |
| AAAACAAG | 0.138 |
| CGTGCGAG | -0.0121 |
| CTTACGAC | 0.0511 |
| CGCATTAG | -0.0585 |

| Sequence | PBM E-score |
| --- | --- |
| AAAGTCAG | 0.0561 |
| GATACGCC | -0.236 |
| ACGCGTAC | -0.0646 |
| GCCCCTAA | 0.0736 |
| AGCACGTA | -0.0486 |
| CAGTGTGG | -0.0835 |
| CAAACTGC | 0.0735 |
| GCCCGAGC | -0.117 |
| ATCGTTAC | 0.0229 |
| ACAATGTA | 0.0691 |
| TCACATAA | 0.0577 |
| ACCACGCT | -0.149 |
| ATAGGTTG | -0.0225 |
| GAGAGTAA | 0.142 |
| ACATCGCA | -0.0893 |
| CATCAGGC | -0.124 |
| GCTTCGTA | -0.0596 |
| CAAGTATC | 0.039 |
| CCCCCATA | -0.287 |
| GCCCGTTA | -0.227 |
| GCAATACA | 0.227 |
| CAAGATGC | 0.175 |
| ATATGCTG | -0.0187 |
| ACGAGGTG | -0.00588 |
| AGTCACTA | 0.0564 |

| Sequence | PBM E-score |
| --- | --- |
| ATAAAATC | 0.207 |
| AACTTGAA | 0.179 |
| CTTTCTGA | 0.0382 |
| GTCAAAGA | -0.0517 |
| GCACAGGA | -0.0578 |
| AATCCGCT | 0.00983 |
| AAATCACC | 0.235 |
| CGTCGGCA | -0.0737 |
| CGTCGCAA | 0.121 |
| CCCTGCGA | -0.179 |
| AGGGTGCA | -0.0855 |
| CCTACCAA | 0.0688 |
| CGGCGTGA | -0.0465 |
| AGAGTGCT | -0.00235 |
| AAGTATTC | 0.13 |
| CTCGGTTC | -0.245 |
| ATCATAAT | 0.293 |
| CGGCGTTA | -0.065 |
| ATTTGGCC | 0.0859 |
| CAGCTCAA | 0.0484 |
| AACGCCTT | -0.112 |
| GGATATAC | 0.127 |

Individual results from the list:
Entry of TGCTAGAA under PBM E-score: -0.0446
Entry of CGGCGTGA under PBM E-score: -0.0465
